According to publication doi:10.1101/2025.07.06.663356:
These are yes or no findings as the source states them, for the method shown. Binding seen in cells or lysates may run through a third protein. Some entries that bind do so weakly or less than the wild type. For part of these data: Tags and fused reporters may be left off the sequences shown.

Amino acid sequences for entries named in this document (tags omitted). A change or cut given only in a name is not applied to a line headed by its entry.
UniProt Q99873: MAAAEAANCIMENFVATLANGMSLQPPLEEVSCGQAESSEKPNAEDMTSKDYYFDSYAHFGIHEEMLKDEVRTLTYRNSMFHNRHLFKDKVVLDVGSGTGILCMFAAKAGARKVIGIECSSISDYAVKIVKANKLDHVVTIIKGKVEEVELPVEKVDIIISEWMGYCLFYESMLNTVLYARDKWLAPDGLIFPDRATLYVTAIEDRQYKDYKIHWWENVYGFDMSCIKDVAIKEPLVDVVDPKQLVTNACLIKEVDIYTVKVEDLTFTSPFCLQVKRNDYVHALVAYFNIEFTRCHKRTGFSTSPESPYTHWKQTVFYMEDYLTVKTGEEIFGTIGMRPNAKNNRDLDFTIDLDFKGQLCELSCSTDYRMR
UniProt O60678: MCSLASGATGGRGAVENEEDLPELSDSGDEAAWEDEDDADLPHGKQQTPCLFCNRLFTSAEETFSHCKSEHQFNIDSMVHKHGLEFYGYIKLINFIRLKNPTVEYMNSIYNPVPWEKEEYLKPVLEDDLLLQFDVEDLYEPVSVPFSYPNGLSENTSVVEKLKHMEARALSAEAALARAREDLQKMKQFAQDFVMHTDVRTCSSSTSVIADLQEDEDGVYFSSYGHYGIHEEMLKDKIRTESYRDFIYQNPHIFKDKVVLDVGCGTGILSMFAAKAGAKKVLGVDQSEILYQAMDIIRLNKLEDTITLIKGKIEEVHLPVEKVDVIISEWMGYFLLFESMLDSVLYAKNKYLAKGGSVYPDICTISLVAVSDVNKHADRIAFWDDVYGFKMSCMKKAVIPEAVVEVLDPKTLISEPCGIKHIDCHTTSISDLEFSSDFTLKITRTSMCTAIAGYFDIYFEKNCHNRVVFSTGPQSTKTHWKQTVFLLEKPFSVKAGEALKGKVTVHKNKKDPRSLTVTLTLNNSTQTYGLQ
UniProt O14744: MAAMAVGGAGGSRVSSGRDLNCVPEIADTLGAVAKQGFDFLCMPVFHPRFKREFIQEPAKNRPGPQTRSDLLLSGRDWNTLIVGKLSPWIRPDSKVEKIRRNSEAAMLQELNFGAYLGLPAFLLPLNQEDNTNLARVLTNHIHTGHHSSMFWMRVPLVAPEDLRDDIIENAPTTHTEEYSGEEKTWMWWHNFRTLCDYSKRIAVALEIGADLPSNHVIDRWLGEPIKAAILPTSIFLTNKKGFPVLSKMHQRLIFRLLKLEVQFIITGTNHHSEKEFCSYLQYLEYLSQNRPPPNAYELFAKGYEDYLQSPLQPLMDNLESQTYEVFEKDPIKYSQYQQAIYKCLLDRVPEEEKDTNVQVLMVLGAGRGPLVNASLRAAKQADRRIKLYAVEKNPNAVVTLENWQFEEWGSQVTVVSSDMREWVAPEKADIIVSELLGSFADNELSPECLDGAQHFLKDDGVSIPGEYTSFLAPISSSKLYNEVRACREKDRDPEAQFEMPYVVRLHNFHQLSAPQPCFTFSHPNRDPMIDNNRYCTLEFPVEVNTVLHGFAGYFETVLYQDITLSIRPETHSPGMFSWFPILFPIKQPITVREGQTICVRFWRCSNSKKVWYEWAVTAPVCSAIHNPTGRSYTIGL
UniProt Q8WUM4: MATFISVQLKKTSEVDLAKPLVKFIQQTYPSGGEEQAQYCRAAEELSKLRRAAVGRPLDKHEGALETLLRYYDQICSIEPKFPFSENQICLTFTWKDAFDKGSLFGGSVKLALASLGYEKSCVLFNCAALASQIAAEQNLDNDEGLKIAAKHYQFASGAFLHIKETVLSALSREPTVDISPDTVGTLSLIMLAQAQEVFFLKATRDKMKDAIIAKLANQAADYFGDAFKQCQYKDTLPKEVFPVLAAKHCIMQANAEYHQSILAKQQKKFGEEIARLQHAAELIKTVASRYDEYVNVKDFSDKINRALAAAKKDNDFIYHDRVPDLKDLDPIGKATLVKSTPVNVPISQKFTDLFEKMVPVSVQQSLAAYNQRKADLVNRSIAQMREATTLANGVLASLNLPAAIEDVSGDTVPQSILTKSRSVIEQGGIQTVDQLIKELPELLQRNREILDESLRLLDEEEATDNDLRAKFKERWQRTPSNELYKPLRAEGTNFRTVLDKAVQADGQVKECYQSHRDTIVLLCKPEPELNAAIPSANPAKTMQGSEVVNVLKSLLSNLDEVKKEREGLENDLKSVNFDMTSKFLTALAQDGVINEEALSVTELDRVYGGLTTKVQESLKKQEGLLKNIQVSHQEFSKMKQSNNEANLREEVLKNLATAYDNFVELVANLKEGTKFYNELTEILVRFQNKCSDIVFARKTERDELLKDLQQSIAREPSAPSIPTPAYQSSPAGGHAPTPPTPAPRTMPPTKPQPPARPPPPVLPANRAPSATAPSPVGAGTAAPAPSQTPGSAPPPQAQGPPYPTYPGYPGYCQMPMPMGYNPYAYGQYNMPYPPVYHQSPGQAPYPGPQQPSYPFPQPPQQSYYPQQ

B1: CEP55, endogenous (protein, UniProt Q53EZ4 1-464)
chain: MSSRSTKDLIKSKWGSKPSNSKSETTLEKLKGEIAHLKTSVDEITSGKGKLTDKERHRLLEKIRVLEAEKEKNAYQLTEKDKEIQRLRDQLKARYSTTTLLEQLEETTREGERREQVLKALSEEKDVLKQQLSAATSRIAELESKTNTLRLSQTVAPNCFNSSINNIHEMEIQLKDALEKNQQWLVYDQQREVYVKGLLAKIFELEKKTETAAHSLPQQTKKPESEGYLQEEKQKCYNDLLASAKKDLEVERQTITQLSFELSEFRRKYEETQKEVHNLNQLLYSQRRADVQHLEDDRHKTEKIQKLREENDIARGKLEEEKKRSEELLSQVQFLYTSLLKQQEEQTRVALLEQQMQACTLDFENEKLDRQHVQHQLHVILKELRKARNQITQLESLKQLHEFAITEPLVTFQGETENREKVAASPKSPTAALNESLVECPKCNIQYPATEHRDLLVHVEYCSK

Assays:
Test in all cases: co-IP
Flag-PRMT1 (human) = Flag-PRMT1 (human) (UniProt Q99873)
Flag-PRMT2 (human) = biological target: T1, Flag-PRMT2 (human) (UniProt P55345)
T1 sequence: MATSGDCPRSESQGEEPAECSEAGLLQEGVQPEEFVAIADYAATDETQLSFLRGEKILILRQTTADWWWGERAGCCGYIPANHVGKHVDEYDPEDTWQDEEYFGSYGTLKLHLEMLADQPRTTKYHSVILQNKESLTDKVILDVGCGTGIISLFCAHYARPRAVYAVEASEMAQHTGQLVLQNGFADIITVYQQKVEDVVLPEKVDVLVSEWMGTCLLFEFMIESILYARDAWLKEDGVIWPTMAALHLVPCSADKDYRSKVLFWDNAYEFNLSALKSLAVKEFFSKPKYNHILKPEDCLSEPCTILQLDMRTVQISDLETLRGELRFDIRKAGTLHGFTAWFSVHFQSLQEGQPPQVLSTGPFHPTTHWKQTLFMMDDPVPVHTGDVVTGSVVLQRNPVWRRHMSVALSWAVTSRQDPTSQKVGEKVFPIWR

Flag-PRMT3 (human) = Flag-PRMT3 (human) (UniProt O60678)
Flag-PRMT5 (human) = Flag-PRMT5 (human) (UniProt O14744)
[1] = biological target: GFP-ALIX-3K (R745K, R757K, R767K) (human) (UniProt Q8WUM4)
GFP-ALIX-FL (human) = GFP-ALIX-FL (human) (UniProt Q8WUM4)

Molecule	binding (Flag-PRMT1 (human))	binding (Flag-PRMT2 (human))	binding (Flag-PRMT3 (human))	binding (Flag-PRMT5 (human))	binding [1]	binding (GFP-ALIX-FL (human))
GFP-ALIX-FL (from UniProt Q8WUM4 1-868)	no binding	no binding	no binding	no binding	–	–
B1	–	–	–	–	binds	binds
